Laboratory results published in paper doi:10.1101/2024.07.25.605195 (bioRxiv, 2024).
No constants are given. Whether binding was seen depends on the method and setting. Some results given as binding are weak or reduced against the parent protein; the word gives no strength.

Sequences of proteins named here, by UniProt entry; tags and fusion partners are left off.
UniProt Q9Z2E9, whole entry: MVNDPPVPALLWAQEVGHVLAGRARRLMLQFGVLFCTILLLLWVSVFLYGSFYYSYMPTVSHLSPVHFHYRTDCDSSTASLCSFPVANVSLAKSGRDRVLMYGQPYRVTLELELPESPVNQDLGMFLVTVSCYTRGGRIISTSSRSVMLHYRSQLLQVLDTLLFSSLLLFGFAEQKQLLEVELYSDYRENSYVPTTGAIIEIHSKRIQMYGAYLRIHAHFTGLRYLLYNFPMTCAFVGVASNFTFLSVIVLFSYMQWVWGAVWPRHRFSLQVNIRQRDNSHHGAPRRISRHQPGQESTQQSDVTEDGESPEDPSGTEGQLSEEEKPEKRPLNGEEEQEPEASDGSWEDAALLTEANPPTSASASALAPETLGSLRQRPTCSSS

Target: Seipin-V5, transfected into HEK293T cells (UniProt Q9Z2E9)
Test: SEC

binding: binds
Substance: Seipin-V5, transfected into HEK293T cells (from UniProt Q9Z2E9 1-383)
